# Experimental data taken from PubChem BioAssay AID1347076 (National Center for Advancing Translational Sciences (NCATS), 2019).
# Among all 400,000 compounds or so, about 13,000 (3.2%) were called active. This list was built around the results that the source calls inconclusive (neither active nor inactive); the mix of calls is not that of the screen. The call rests on the fitted dose curve; in most records, active means well fitted cell-killing curve with a large enough effect; inconclusive means small, poorly fitted or top-dose-only effect, or effect the other way; inactive means flat fitted curve, though single readings scatter. A potency beside an inconclusive call is a rough fit, not a confirmed value.
# Assay: qHTS assay for MDR1-selective chemotherapeutics: Primary screen using the drug-selected MDR subline cells KB-V1; further: nearly all actives have a fitted effect of over 60% in size
# Conditions: KB-V1 MDR cells viability, CellTiter-Glo, 72 h; activity change, negative = cytotoxicity: at 46.1 µM (top of the series)
# How it was run: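 qHTS viability screen in drug-selected KB-V1 MDR cells: 72 h compound treatment at 37 degrees C, ATP luminescence end point.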
# On the % scale 0 is the no-effect control and ±100 the full control effect; potency means the concentration at half of the fitted maximal effect.
SMILES,Potency,"activity change, negative = cytotoxicity"
C[C@@H]1CN([C@H](C)CO)C(=O)c2c(c3ccccc3n2C)-c2ccccc2CO[C@@H]1CN(C)Cc1ccc(O)cc1,"inconclusive: 20.6 µM [cytotoxic, single point]",
COc1cccc(N2CC(NS(=O)(=O)c3cccnc3)CC2=O)c1 (centres undefined),,inactive: -1.05%
CC(C)CCn1c(=O)c(C(=O)N/N=C/c2cccc(F)c2)c(O)c2ccccc21,"inconclusive: 2.59 µM [cytotoxic, partial curve, poor fit]",
O=C(/C=C/c1ccccc1[N+](=O)[O-])Nc1cccnc1,"inconclusive: 20.6 µM [cytotoxic, single point]",
COc1ccc(C(=O)Nc2ccc(Cl)cc2C(=O)N2CCCC(C)C2)cc1OC (centres undefined),"inconclusive: 32.6 µM [cytotoxic, single point]",
Cn1nnc2cc(NC(=O)Nc3cccc(C(F)(F)F)c3)ccc21,"inconclusive: 20.6 µM [rising, single point]",
COc1cc(C(=O)NC2CCCCCCC2)cc(OC)c1OC,"inconclusive: 20.6 µM [cytotoxic, single point]",
O=C1CS/C(=N/N=C/c2ccccc2)N1c1ccc(O)cc1,"inconclusive: 0.58 µM [rising, full curve, poor fit]",
Cc1ccc(-n2c(C)cc(C(=O)CSc3nnnn3C)c2C)cc1,"inconclusive: 14.6 µM [cytotoxic, single point]",
CCCCNC(=S)Nc1ccc(C(F)(F)F)cc1,"inconclusive: 29.1 µM [cytotoxic, single point]",
Cc1c(C(=O)NC(=S)Nc2ccc(NC(=O)c3cccs3)cc2)cccc1[N+](=O)[O-],"inconclusive: 29.1 µM [cytotoxic, single point]",
COCCCNC(=O)c1cc(=O)n(Cc2ccc(Cl)cc2)c2ccccc12,"inconclusive: 9.2 µM [cytotoxic, partial curve]",
CC(=O)C[C@@H]1OC[C@H](Cc2ccccc2)N1S(=O)(=O)c1ccc(C)cc1,"inconclusive: 20.6 µM [cytotoxic, partial curve]",
CCSc1nc2nccnc2c(=O)[nH]1,"inconclusive: 23.1 µM [rising, single point]",
Cn1c(N)c(C#N)c2c(c1=S)CSC(C)(C)C2,,inactive: 4.21%
Cn1c(CCc2ccccc2)n[nH]c1=S,"inconclusive: 29.1 µM [cytotoxic, partial curve, poor fit]",
Cc1nn2c(c1-c1ccccc1)NC1=C(C(=O)CCC1)C2c1ccccc1 (centres undefined),"inconclusive: 5.8 µM [cytotoxic, partial curve]",
O=C(NC1CCS(=O)(=O)C1)Oc1ccccc1 (centres undefined),,inactive: 23.1%
Cc1c(CCOC(=O)CC23CC4CC(CC(C4)C2)C3)sc[n+]1Cc1ccccc1,"inconclusive: 23.1 µM [rising, single point]",
O=C(CSc1n[nH]c(-c2ccc(F)cc2)n1)N1CCN(c2ccc(F)cc2)CC1,,inactive: -12.1%
CCOC(=O)c1cc(S(=O)(=O)Nc2ccccc2)[nH]n1,,inactive: -9.73%
Cc1ccc(C(=O)COC(=O)c2cc(Cl)nc3ccccc23)cc1C,"inconclusive: 29.1 µM [cytotoxic, single point]",

# Part of the list above, set out differently:
SMILES	Potency	activity change, negative = cytotoxicity
CCOC(=O)c1cc(S(=O)(=O)Nc2ccccc2)[nH]n1		inactive: -9.73%
Cc1ccc(C(=O)COC(=O)c2cc(Cl)nc3ccccc23)cc1C	inconclusive: 29.1 µM [cytotoxic, single point]	

# (further entries)

SMILES,Potency,"activity change, negative = cytotoxicity"
CC(C)(C)c1ccc(S(=O)(=O)NC(=O)C2(C)CCN2C(=O)CC2CC2)cc1 (centres undefined),,inactive: 3.48%
O=C(NCCNC(=O)c1ccco1)c1ccco1,,inactive: 8.86%
CC(=O)C1=C(C)NC(SCc2cccc([N+](=O)[O-])c2)=C(C#N)C1c1ccco1 (centres undefined),active: 10.3 µM,
CCCCNc1ccccc1C(=O)OCC(=O)Nc1ccc(S(N)(=O)=O)cc1,"inconclusive: 29.1 µM [cytotoxic, single point]",
Cc1cccc(N2CCN(C(=O)NCc3ccc(Cl)cc3)CC2)c1,active: 8.2 µM,
COc1ccc(C2CC(=O)c3cc(-c4nc(-c5cccc([N+](=O)[O-])c5)cs4)c(=O)n(-c4ccccc4N)c3C2)cc1 (centres undefined),"inconclusive: 23.1 µM [rising, single point]",
S=c1nc(-c2csc3c2CCCC3)[nH][nH]1,,inactive: -29.1%
CCOC(=O)N1CCN(S(=O)(=O)c2ccc(Br)s2)CC1,"inconclusive: 18.4 µM [cytotoxic, partial curve]",
COc1ccc2nc(/N=C(\N)NC(=O)Nc3ccccc3)nc(C)c2c1,"inconclusive: 25.9 µM [cytotoxic, single point]",
Cc1ccc2nsnc2c1NC(=O)c1ccc2c(c1)OCCO2,"inconclusive: 20.6 µM [cytotoxic, partial curve, poor fit]",
Oc1ccc(Cl)cc1-c1cc(-c2cccc(Br)c2)n[nH]1,active: 20.6 µM,
COc1cccc(OCC(=O)Nc2ccccc2C(=O)Nc2ccc(C(=O)O)cc2)c1,"inconclusive: 1.46 µM [rising, full curve, poor fit]",
Cc1ccc(NC(=O)c2nc[nH]c2C(=O)NCCCCNC(=O)c2[nH]cnc2C(=O)Nc2ccc(C)cc2)cc1,"inconclusive: 13 µM [cytotoxic, single point]",
O=[N+]([O-])c1cccc(-c2nnc3n2CCCCC3)c1,"inconclusive: 29.1 µM [rising, single point]",
Cc1cccc2c1-c1sc(C(=O)NCCCN3CCc4ccccc4C3)cc1CO2,"inconclusive: 32.6 µM [cytotoxic, single point]",
Cc1c(Cl)cccc1NC(=O)CNC(=O)c1ccc(F)cc1,"inconclusive: 9.2 µM [cytotoxic, partial curve]",
CCN(c1ccc(OC)cc1)S(=O)(=O)c1ccc2[nH]c3c(c2c1)CCCCC3,active: 18.4 µM,
Cc1ccc(S(=O)(=O)NCCC(=O)O)cc1,"inconclusive: 23.1 µM [rising, single point]",
Cc1cccc(NC(=O)COc2cccc3c2CCN(Cc2ccccc2)C3=O)c1C,active: 9.2 µM,
O=C(NCCCN1CCOCC1)C1CCCN(S(=O)(=O)N2CCCCC2)C1 (centres undefined),,inactive: 1.22%
Clc1ccc(C(Cn2ccnc2)OCc2c(Cl)cccc2Cl)c(Cl)c1 (centres undefined),"inconclusive: 18.4 µM [cytotoxic, partial curve]",
CN1/C(=C\C(=O)c2cccs2)C(C)(C)c2ccccc21,"inconclusive: 29.1 µM [cytotoxic, single point]",
